Measurements reported in patent publication US8796245B2 (TetraPhase Pharmaceuticals, Inc., priority 2008, dated 2014).
At least one read-out could not be matched to a standard name with certainty.

What was measured:
Format in all cases: cell-based
[1] = system: S. aureus SA161 (tet resistant: tet(M) ribosomal protection); assay: Minimum inhibitory concentration assay, SA161; conditions: control compounds, numeric MIC; 0.016 means 0.016 or lower
Experimental: (§1) Frozen bacterial strains were thawed and subcultured onto Mueller Hinton Broth (MHB) or other appropriate media (Streptococcus requires blood and Haemophilus requires hemin and NAD). Following incubation overnight, the strains were subcultured onto Mueller Hinton Agar and again incubated overnight. […] Isolated colonies were selected to prepare a starting inoculum equivalent to a 0.5 McFarland standard. The starting inoculum was diluted 1:125 using MHB for further use. Test compounds were prepared by dilution in sterile water to a final concentration of 5.128 mg/mL. Antibiotics (stored frozen, thawed and used within 3 hours of thawing) and compounds were further diluted to the desired working concentrations.
(§2) The assays were run as follows. Fifty μL of MHB was added to wells 2-12 of a 96-well plate. One hundred […] of appropriately diluted antibiotics was added to well 1. Fifty μL of antibiotics was removed from well 1 and added to well 2 and the contents of well 2 mixed by pipetting up and down five times. Fifty μL of the mixture in well 2 was removed and added to well 3 and mixed as above. Serial dilutions were continued in the same manner through well 12. […] The plates were then incubated at 37° C. overnight, removed from the incubator and each well was read on a plate reading mirror. The lowest concentration (MIC) of test compound that inhibited the growth of the bacteria was recorded.

[2] = system: K. pneumoniae KP153 (tet resistant: tetA efflux); conditions: control compounds, numeric
Experimental: as §1
(§3) The assays were run as follows. Fifty μL of MHB was added to wells 2-12 of a 96-well plate. One hundred […] of appropriately diluted antibiotics was added to well 1. Fifty μL of antibiotics was removed from well 1 and added to well 2 and the contents of well 2 mixed by pipetting up and down five times. Fifty μL of the mixture in well 2 was removed and added to well 3 and mixed as above. Serial dilutions were continued in the same manner through well 12. Fifty μL was removed from well 12 so that all contained 50 μL. Fifty μL of the working inoculum was then added to all test wells. A growth control well was prepared by adding 50 μL of working inoculum and 50 μL of MHB to an empty well. The plates were then incubated at 37° C. overnight, removed from the incubator and each well was read on a plate reading mirror. The lowest concentration (MIC) of test compound that inhibited the growth of the bacteria was recorded.

[3] = system: S. aureus SA158 (tet resistant: tetK efflux); conditions: control compounds, numeric MIC; 0.016 means 0.016 or lower
Experimental: as §1, §3

[4] = system: S. pneumoniae ATCC 49619 (SP106); assay: Minimum inhibitory concentration assay, SP106; conditions: control compounds, numeric MIC; 0.016 means 0.016 or lower
Experimental: as §1, §2

[5] = system: K. pneumoniae ATCC 13883 (KP109); assay: Minimum inhibitory concentration assay, KP109; conditions: control compounds, numeric
Experimental: as §1, §2

[6] = system: E. faecalis ATCC 29212 (EF103); assay: Minimum inhibitory concentration assay, EF103; conditions: control compounds, numeric MIC; 0.016 means 0.016 or lower
Experimental: as §1, §2

[7] = system: S. pneumoniae SP160 (tet resistant: tet M); assay: Minimum inhibitory concentration assay, SP160; conditions: control compounds, numeric MIC; 0.016 means 0.016 or lower
Experimental: as §1, §2

[8] = system: S. aureus ATCC 13709 (SA100, MSSA, Smith strain); assay: Minimum inhibitory concentration assay, SA100; conditions: control compounds, numeric MIC; 0.016 means 0.016 or lower
Experimental: as §1, §2

[9] = system: E. coli ATCC 25922 (EC107); assay: Minimum inhibitory concentration assay, EC107; conditions: control compounds, numeric
Experimental: as §1, §2

[10] = system: E. faecalis EF159 (tet resistant: tetM); assay: Minimum inhibitory concentration assay, EF159; conditions: control compounds, numeric MIC; 0.016 means 0.016 or lower
Experimental: as §1, §2

Structure (SMILES)	MIC SA161 MRSA, tetM [1]	MIC [2]	MIC SA158 tetK [3]	MIC SP106 49619 [4]	MIC [5]	MIC EF103 29212 [6]	MIC SP160 tetM [7]	MIC SA100 13709 [8]	MIC [9]	MIC EF159 tetM [10]
CN(C)c1ccc(O)c2c1C[C@H]1C[C@H]3[C@H](N(C)C)C(O)=C(C(N)=O)C(=O)[C@@]3(O)C(O)=C1C2=O [Minocycline]	8									
CN(C)[C@@H]1C(O)=C(C(N)=O)C(=O)[C@@]2(O)C(O)=C3C(=O)c4c(O)cccc4C[C@H]3C[C@@H]12 [Sancycline]		32	4	0.25	8	8	8	1	8	8
CN(C)c1cc(NC(=O)CNC(C)(C)C)c(O)c2c1C[C@H]1C[C@H]3[C@H](N(C)C)C(O)=C(C(N)=O)C(=O)[C@@]3(O)C(O)=C1C2=O [Tigecycline]	0.125	1	0.06	≤ 0.016	0.125	0.03	≤ 0.016	0.06	0.03	0.06
